PMC8789539
Results are given in words; binding and its absence hold for the method and conditions named. In cells and extracts the contact can be indirect. Some binding calls cover weakened binding; strength is not graded here. Where a sequence is shown, tags or fusion partners need not be part of it. Each block holds one binder with its values, some of them ahead of it.

Columns and labels:
Assay in all cases: co-IP; Hek293T cells transfected 48 h; lysis buffer 150 mM NaCl, 50 mM Tris-HCl pH 7.4, 5% glycerol, 2 mM EDTA, 1% Nonidet P-40; supernatant incubated overnight with rabbit anti-HA antibody, protein A agarose beads 2 h, 4 °C; Western blot with anti-CerS6 or anti-CerS2 antibody
[1] = biological target: T1, CerS2^Δ335–380-HA (human) (UniProt Q96G23)
T1 sequence: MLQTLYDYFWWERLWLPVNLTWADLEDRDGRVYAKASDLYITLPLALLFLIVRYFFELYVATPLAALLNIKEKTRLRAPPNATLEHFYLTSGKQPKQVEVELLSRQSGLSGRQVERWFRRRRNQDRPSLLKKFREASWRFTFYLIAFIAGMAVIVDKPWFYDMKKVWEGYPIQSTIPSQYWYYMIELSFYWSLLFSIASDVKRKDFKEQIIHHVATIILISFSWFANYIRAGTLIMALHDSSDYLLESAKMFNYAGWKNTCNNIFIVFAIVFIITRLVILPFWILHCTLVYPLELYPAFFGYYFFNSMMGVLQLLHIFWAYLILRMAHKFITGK

[2] = biological target: T2, CerS2^Δ358–364-HA (human) (UniProt Q96G23)
T2 sequence: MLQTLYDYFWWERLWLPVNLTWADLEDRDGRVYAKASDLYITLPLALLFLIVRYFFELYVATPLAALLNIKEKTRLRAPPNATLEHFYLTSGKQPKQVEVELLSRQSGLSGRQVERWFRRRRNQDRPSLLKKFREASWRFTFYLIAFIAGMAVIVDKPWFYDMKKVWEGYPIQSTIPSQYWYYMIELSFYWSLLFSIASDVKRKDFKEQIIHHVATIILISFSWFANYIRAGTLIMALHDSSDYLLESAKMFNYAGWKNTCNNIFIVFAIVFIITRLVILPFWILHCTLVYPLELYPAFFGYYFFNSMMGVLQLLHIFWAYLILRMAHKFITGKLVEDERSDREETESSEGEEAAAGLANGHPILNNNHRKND

[3] = biological target: T3, CerS2^Δ365–371-HA (human) (UniProt Q96G23)
T3 sequence: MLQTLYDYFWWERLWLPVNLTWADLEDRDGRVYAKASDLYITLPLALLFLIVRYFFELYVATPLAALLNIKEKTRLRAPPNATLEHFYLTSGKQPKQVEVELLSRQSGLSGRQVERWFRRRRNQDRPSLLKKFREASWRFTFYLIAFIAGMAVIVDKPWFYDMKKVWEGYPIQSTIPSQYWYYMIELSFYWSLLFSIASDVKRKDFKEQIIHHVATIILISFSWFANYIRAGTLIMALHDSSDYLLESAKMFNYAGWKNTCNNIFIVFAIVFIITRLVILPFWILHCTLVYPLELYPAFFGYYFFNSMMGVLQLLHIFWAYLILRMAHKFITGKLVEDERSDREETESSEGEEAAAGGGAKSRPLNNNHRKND

[4] = biological target: T4, Hemagglutinin (HA)-tagged CerS2 (human) (UniProt Q96G23)
T4 sequence: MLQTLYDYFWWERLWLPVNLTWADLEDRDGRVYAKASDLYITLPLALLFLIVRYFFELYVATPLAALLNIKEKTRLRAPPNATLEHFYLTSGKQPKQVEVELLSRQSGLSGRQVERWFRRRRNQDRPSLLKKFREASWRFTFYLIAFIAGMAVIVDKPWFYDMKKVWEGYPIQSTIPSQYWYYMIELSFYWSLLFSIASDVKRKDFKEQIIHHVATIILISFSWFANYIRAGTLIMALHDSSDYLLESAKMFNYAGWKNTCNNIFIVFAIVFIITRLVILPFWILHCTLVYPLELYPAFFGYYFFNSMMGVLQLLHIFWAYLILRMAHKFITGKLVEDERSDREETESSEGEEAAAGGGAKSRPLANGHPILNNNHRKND

[5] = biological target: T5, CerS2^Δ347–357-HA (human) (UniProt Q96G23)
T5 sequence: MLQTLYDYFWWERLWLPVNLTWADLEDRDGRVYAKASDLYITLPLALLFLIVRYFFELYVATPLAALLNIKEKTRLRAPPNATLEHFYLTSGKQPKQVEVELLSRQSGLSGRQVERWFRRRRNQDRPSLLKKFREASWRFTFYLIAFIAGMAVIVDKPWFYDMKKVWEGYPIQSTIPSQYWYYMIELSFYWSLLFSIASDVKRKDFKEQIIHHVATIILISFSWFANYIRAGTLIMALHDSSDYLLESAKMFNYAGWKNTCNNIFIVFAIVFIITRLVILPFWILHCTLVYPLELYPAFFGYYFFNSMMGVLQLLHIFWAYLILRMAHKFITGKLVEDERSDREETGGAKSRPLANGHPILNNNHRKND

B1: CerS6^Δ335–384-Flag (domain or fragment, UniProt Q6ZMG9 1-334)
chain: MAGILAWFWNERFWLPHNVTWADLKNTEEATFPQAEDLYLAFPLAFCIFMVRLIFERFVAKPCAIALNIQANGPQIAPPNAILEKVFTAITKHPDEKRLEGLSKQLDWDVRSIQRWFRQRRNQEKPSTLTRFCESMWRFSFYLYVFTYGVRFLKKTPWLWNTRHCWYNYPYQPLTTDLHYYYILELSFYWSLMFSQFTDIKRKDFGIMFLHHLVSIFLITFSYVNNMARVGTLVLCLHDSADALLEAAKMANYAKFQKMCDLLFVMFAVVFITTRLGIFPLWVLNTTLFESWEIVGPYPSWWVFNLLLLLVQGLNCFWSYLIVKIACKAVSRGK
binding [1]: binds

B4: Flag-tagged CerS6 (enzyme, UniProt Q6ZMG9 1-384)
chain: MAGILAWFWNERFWLPHNVTWADLKNTEEATFPQAEDLYLAFPLAFCIFMVRLIFERFVAKPCAIALNIQANGPQIAPPNAILEKVFTAITKHPDEKRLEGLSKQLDWDVRSIQRWFRQRRNQEKPSTLTRFCESMWRFSFYLYVFTYGVRFLKKTPWLWNTRHCWYNYPYQPLTTDLHYYYILELSFYWSLMFSQFTDIKRKDFGIMFLHHLVSIFLITFSYVNNMARVGTLVLCLHDSADALLEAAKMANYAKFQKMCDLLFVMFAVVFITTRLGIFPLWVLNTTLFESWEIVGPYPSWWVFNLLLLLVQGLNCFWSYLIVKIACKAVSRGKVSKDDRSDIESSSDEEDSEPPGKNPHTATTTNGTSGTNGYLLTGSCSMDD
binding [4]: binds

B5: CerS6^Δ348–361-Flag (enzyme, UniProt Q6ZMG9)
chain: MAGILAWFWNERFWLPHNVTWADLKNTEEATFPQAEDLYLAFPLAFCIFMVRLIFERFVAKPCAIALNIQANGPQIAPPNAILEKVFTAITKHPDEKRLEGLSKQLDWDVRSIQRWFRQRRNQEKPSTLTRFCESMWRFSFYLYVFTYGVRFLKKTPWLWNTRHCWYNYPYQPLTTDLHYYYILELSFYWSLMFSQFTDIKRKDFGIMFLHHLVSIFLITFSYVNNMARVGTLVLCLHDSADALLEAAKMANYAKFQKMCDLLFVMFAVVFITTRLGIFPLWVLNTTLFESWEIVGPYPSWWVFNLLLLLVQGLNCFWSYLIVKIACKAVSRGKVSKDDRSDIESSSATTTNGTSGTNGYLLTGSCSMDD
binding [5]: binds

Other lines, results leading:

binding [2]: binds
B2: CerS6^Δ359–365-Flag (enzyme, UniProt Q6ZMG9)
chain: MAGILAWFWNERFWLPHNVTWADLKNTEEATFPQAEDLYLAFPLAFCIFMVRLIFERFVAKPCAIALNIQANGPQIAPPNAILEKVFTAITKHPDEKRLEGLSKQLDWDVRSIQRWFRQRRNQEKPSTLTRFCESMWRFSFYLYVFTYGVRFLKKTPWLWNTRHCWYNYPYQPLTTDLHYYYILELSFYWSLMFSQFTDIKRKDFGIMFLHHLVSIFLITFSYVNNMARVGTLVLCLHDSADALLEAAKMANYAKFQKMCDLLFVMFAVVFITTRLGIFPLWVLNTTLFESWEIVGPYPSWWVFNLLLLLVQGLNCFWSYLIVKIACKAVSRGKVSKDDRSDIESSSDEEDSEPPGKNNGTSGTNGYLLTGSCSMDD

binding [3]: binds
B3: CerS6^Δ366–372-Flag (enzyme, UniProt Q6ZMG9)
chain: MAGILAWFWNERFWLPHNVTWADLKNTEEATFPQAEDLYLAFPLAFCIFMVRLIFERFVAKPCAIALNIQANGPQIAPPNAILEKVFTAITKHPDEKRLEGLSKQLDWDVRSIQRWFRQRRNQEKPSTLTRFCESMWRFSFYLYVFTYGVRFLKKTPWLWNTRHCWYNYPYQPLTTDLHYYYILELSFYWSLMFSQFTDIKRKDFGIMFLHHLVSIFLITFSYVNNMARVGTLVLCLHDSADALLEAAKMANYAKFQKMCDLLFVMFAVVFITTRLGIFPLWVLNTTLFESWEIVGPYPSWWVFNLLLLLVQGLNCFWSYLIVKIACKAVSRGKVSKDDRSDIESSSDEEDSEPPGKNPHTATTTGYLLTGSCSMDD
